Construct, isoform or probe ends are uncertain for at least one entry.

The test system of this data set is RleAI type II restriction endonuclease (Rhizobium leguminosarum DSM 5629). The data set can be described thus: enzyme reaction in vitro. Conditions: lambda DNA cleaved; 10 mM Tris-HCl pH 7.5, 10 mM MgCl2, 1 mM DTE final, 30 C, 1 h; 1 U cleaves 1 µg lambda DNA in 1 h in 25 µl; purified native protein.

In the case of “CCCACA (double strand) [RleAI recognition sequence CCCACA(N)12/9 in lambda DNA]”, the “activity on this sequence” value is recorded as “active”.

The values above are taken from patent publication US5134067.
